Some results were stated once for a whole list of compounds, not compound by compound.
B1: CTR107 Y106W: CTR107 variant aptamer, SEQ ID NO:20 (protein, listed as Escherichia coli)
chain: MDFECQFVCELKELAPVPALLIRTQTTMSELGSLFEAGYHDILQLLAGQGKSPSGPPFARYFGMSAGTFEVEFGFPVEGGVEGSGRVVTGLTPSGKAASSLYIGPWGEIEAVYDALMKWVDDNGFDLSGEAYEIYLDNPAETAPDQLRTRVSLMLHESLEHHHHHH
B2: LIN2189 E157A: LIN2189 variant aptamer, SEQ ID NO:28 (protein, listed as Escherichia coli)
chain: MGSHHHHHHTEKKIDFKKEEKKFYAPKRKPERIFVPEMNFLMVDGKGDPDGEEYQKAVQSLYAIAYTIKMSKMGETRLDGYSDFVVPPLEGFWWSEGKFDLKDRDAWLWTSILRQPDFVTEEVLEWAKEVARKKKPDVDTSRVKLVRFEEGECVQMMHVGPFSEAVHTVAEMHQFMETEGLRNDTGAIRKHHEIYLSDPRKANPEKMKTILRLPVS

Legend:
CY5-oligo-BHQ1 = CY5-oligo-BHQ1 (CY5-DNA-BHQ1) fluorescence switch assay; details: 100 nM CY5-oligo-BHQ1; saturating protein
[1] = Daunorubicin fluorescence quenching screen; details: 50 μM daunorubicin; green channel

| Molecule | CY5-oligo-BHQ1 fluorescence switch activation (CY5-oligo-BHQ1) | decrease in Daunorubicin fluorescence [1] |
| --- | --- | --- |
| B1 | 2-5 fold | greater than 2 fold |
| B2 | 15-17 fold | – |
